Values quoted from earlier work in patent US6663897B2, “Oral itraconazole formulations and methods of making the same” (DSM IP Assets B.V., priority 2001, dated 2003).
For at least one compound, name, drawing or mass did not settle the structure.

Details: low solubility and low permeability; cited from earlier work

SMILES: CCC(C)n1ncn(-c2ccc(N3CCN(c4ccc(OCC5COC(Cn6cncn6)(c6ccc(Cl)cc6Cl)O5)cc4)CC3)cc2)c1=O (racemic) [Itraconazole, (±)-cis-4-[4-[4-[4-[[2-(2,4-dichlorophenyl)-2-(1H-1,2,4-triazol-1-ylmethyl)-1,3-dioxolan-4-yl]methoxy]phenyl]-1-piperazinyl]phenyl]-2,4-dihydro-2-(1-methylpropyl)-3H-1,2,4-triazol-3-one]
- Biopharmaceutics Classification System class: class 4
